Patent publication US20240398804A1
These are yes or no findings as the source states them, for the method shown. Some entries that bind do so weakly or less than the wild type.

The chains behind the UniProt entries cited, without tags or fusion partners. Residues count along the entry.
UniProt P07947, residues 2-543: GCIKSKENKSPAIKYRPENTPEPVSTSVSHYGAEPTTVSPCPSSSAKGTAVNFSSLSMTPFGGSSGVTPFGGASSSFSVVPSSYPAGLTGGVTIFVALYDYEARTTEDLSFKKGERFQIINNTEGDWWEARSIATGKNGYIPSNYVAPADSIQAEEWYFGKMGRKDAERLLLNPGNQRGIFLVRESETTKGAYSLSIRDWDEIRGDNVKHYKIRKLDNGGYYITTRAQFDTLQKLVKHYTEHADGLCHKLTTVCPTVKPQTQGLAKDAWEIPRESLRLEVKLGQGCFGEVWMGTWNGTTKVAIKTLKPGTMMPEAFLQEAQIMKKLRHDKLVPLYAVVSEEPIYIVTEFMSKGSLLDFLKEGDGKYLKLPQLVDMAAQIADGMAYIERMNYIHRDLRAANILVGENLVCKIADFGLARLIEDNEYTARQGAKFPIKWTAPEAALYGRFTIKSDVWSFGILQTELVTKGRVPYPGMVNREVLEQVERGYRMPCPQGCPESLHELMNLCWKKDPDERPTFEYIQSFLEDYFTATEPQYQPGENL

Target: YAP1 (65 kd Yes-associated protein) (UniProt P46937)
Assay: YAP1 immunoprecipitation from SW480 lysate, immunoblot

“YES1 (Yamaguchi sarcoma viral oncogene homolog 1) (from UniProt P07947 2-543) (enzyme)” was tested, and the binding was “binds”.
